{"source": "PubChem BioAssay AID2685", "about": "(National Center for Advancing Translational Sciences (NCATS), 2010)", "assay": "qHTS Assay for Lipid Storage Modulators in Drosophila S3 Cells;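 on cell number change: cells counted by Cell Tracker Red CMTPX staining in the red channel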", "settings": "BODIPY lipid droplet fluorescence, 18-24 h; for cell number change: measured here: cell count max response, cells fed with added oleic acid", "method_in_brief": "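Laser-scanning cytometry quantifies lipid droplet accumulation (500–530 nm total intensity; droplet/cell object ratio) in oleic acid-fed (400 uM added) Drosophila S3 cells treated with a concentration series. 20 uM Triacsin C defined 100% inhibition.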", "key": {"[1]": {"settings": "measured here: cell number channel AC50, cells fed with added oleic acid"}, "[2]": {"settings": "measured here: lipid fluorescence (Fed channel) AC50, cells fed with added oleic acid"}}, "note": "The other results are listed elsewhere or left out. The main result of the screen is listed elsewhere. These columns were measured beside it and carry no call. The list favours compounds with an active or inconclusive main result. The note in brackets gives the kind of curve behind each potency; many fits are weak.", "data": [{"smiles": "O=C(CSc1n[nH]c(-c2ccccn2)n1)Nc1ccccc1", "values": [{"measurement": "cell number change", "value": 10.8, "unit": "%"}]}, {"smiles": "CCOC(=O)c1nnn2c1nc(N(CC)CC)c1ccccc12", "values": [{"measurement": "cell number change", "value": 22.2, "unit": "%"}, {"measurement": "AC50", "setting": "[1]", "value": "0.58 µM [rising, full curve, poor fit]"}]}, {"smiles": "COCCn1c(C)cc(C(=O)CSc2nncn2-c2ccccc2)c1C", "values": [{"measurement": "cell number change", "value": 13.5, "unit": "%"}, {"measurement": "AC50", "setting": "[2]", "value": "3.66 µM [rising, full curve]"}]}, {"smiles": "Cc1ccc(C(=O)Nc2ccc(S(=O)(=O)N3CCCC3)cc2)o1", "values": [{"measurement": "cell number change", "value": 25.1, "unit": "%"}]}, {"smiles": "CC(C(=O)N(C)Cc1cccc(F)c1)N1CCN(S(=O)(=O)c2ccc3c(c2)OCCCO3)CC1", "note": "(configuration not stated)", "values": [{"measurement": "AC50", "setting": "[2]", "value": "3.26 µM [rising, single point]"}]}, {"smiles": "Nc1ccc(-c2nc3ncccc3o2)c(Cl)c1", "values": [{"measurement": "cell number change", "value": -9.81, "unit": "%"}, {"measurement": "AC50", "setting": "[1]", "value": "0.00461 µM [falling, full curve, poor fit]"}, {"measurement": "AC50", "setting": "[2]", "value": "10.3 µM [rising, partial curve, poor fit]"}]}, {"smiles": "COc1cccc(-n2nnnc2SCC(=O)Nc2ccc(NC(C)=O)cc2)c1", "values": [{"measurement": "cell number change", "value": -6.94, "unit": "%"}, {"measurement": "AC50", "setting": "[1]", "value": "0.13 µM [rising, partial curve, poor fit]"}, {"measurement": "AC50", "setting": "[2]", "value": "29.1 µM [rising, single point]"}]}, {"smiles": "O=C(N/N=C/c1coc2ccc(Cl)cc2c1=O)c1ccncc1", "values": [{"measurement": "cell number change", "value": 18.1, "unit": "%"}]}, {"smiles": "CC(=O)Nc1ccc(NC(=O)CN(c2cccc(C(C)=O)c2)S(C)(=O)=O)cc1", "values": [{"measurement": "cell number change", "value": -1.58, "unit": "%"}, {"measurement": "AC50", "setting": "[2]", "value": "6.51 µM [falling, partial curve, poor fit]"}]}, {"smiles": "O=C(CSc1nc2c(c(=O)[nH]1)CCC2)Nc1ccc(F)cc1", "values": [{"measurement": "cell number change", "value": -8.97, "unit": "%"}]}, {"smiles": "CCCC/C(O)=C1\\C(=O)CC(C)(C)CC1=Nc1ccc(OC)cc1", "values": [{"measurement": "cell number change", "value": -9.05, "unit": "%"}, {"measurement": "AC50", "setting": "[2]", "value": "0.58 µM [falling, single point]"}]}, {"smiles": "O=C(CNC(=O)C12CC3CC(CC(C3)C1)C2)N/N=C\\c1ccccn1", "values": [{"measurement": "AC50", "setting": "[2]", "value": "0.651 µM [rising, single point]"}]}, {"smiles": "O=C(c1ccco1)N1CCN(c2nc(C(F)(F)F)nc3c2nnn3Cc2ccccc2)CC1", "values": [{"measurement": "cell number change", "value": -23.5, "unit": "%"}, {"measurement": "AC50", "setting": "[2]", "value": "16.4 µM [falling, single point]"}]}, {"smiles": "CC1=C(C(=O)Nc2ccccc2C)C(c2ccc(C)o2)C2=C(CCCC2=O)N1", "note": "(configuration not stated)", "values": [{"measurement": "cell number change", "value": 29.3, "unit": "%"}, {"measurement": "AC50", "setting": "[2]", "value": "0.651 µM [rising, partial curve, poor fit]"}]}, {"smiles": "O=C(Cc1ccccc1[N+](=O)[O-])NNC(=O)Nc1ccc2c(c1)OCO2", "values": [{"measurement": "cell number change", "value": 35.6, "unit": "%"}, {"measurement": "AC50", "setting": "[1]", "value": "0.92 µM [rising, full curve, poor fit]"}, {"measurement": "AC50", "setting": "[2]", "value": "5.8 µM [rising, full curve]"}]}, {"smiles": "O=C1CC2(CCCC2)C(=O)N1CN1CCN(S(=O)(=O)c2ccc(Cl)c(Cl)c2)CC1", "values": [{"measurement": "cell number change", "value": 32.3, "unit": "%"}, {"measurement": "AC50", "setting": "[1]", "value": "32.6 µM [rising, single point]"}, {"measurement": "AC50", "setting": "[2]", "value": "32.6 µM [rising, partial curve, poor fit]"}]}, {"smiles": "CC(=O)N1CCN(CC(=O)Nc2ccccc2Sc2ccccc2)CC1", "values": [{"measurement": "cell number change", "value": 12.9, "unit": "%"}, {"measurement": "AC50", "setting": "[2]", "value": "0.146 µM [falling, full curve]"}]}, {"smiles": "COc1ccc(CCNC(=O)[C@H](C)N2C(=O)N3CCc4c([nH]c5ccccc45)[C@@]3(C)C2=O)cc1OC", "values": [{"measurement": "cell number change", "value": -35, "unit": "%"}, {"measurement": "AC50", "setting": "[1]", "value": "0.82 µM [falling, full curve, poor fit]"}, {"measurement": "AC50", "setting": "[2]", "value": "0.259 µM [falling, full curve]"}]}, {"smiles": "O=[N+]([O-])c1ccc2nc(NS(=O)(=O)c3ccc(Cl)cc3)sc2c1", "values": [{"measurement": "cell number change", "value": 7.39, "unit": "%"}, {"measurement": "AC50", "setting": "[2]", "value": "29.1 µM [rising, single point]"}]}, {"smiles": "O=C(NCc1ccc(F)cc1)c1cccc2c1C(=O)c1ccc(N3CCOCC3)cc1S2(=O)=O", "values": [{"measurement": "cell number change", "value": -12.5, "unit": "%"}, {"measurement": "AC50", "setting": "[2]", "value": "0.058 µM [rising, full curve, poor fit]"}]}, {"smiles": "CCc1ccc(NC(=O)c2cnc3n(c2=O)CCS3)cc1", "values": [{"measurement": "cell number change", "value": -1.02, "unit": "%"}, {"measurement": "AC50", "setting": "[1]", "value": "0.103 µM [rising, full curve, poor fit]"}]}, {"smiles": "CCCCC(CC)CNC(=O)/C=C/c1ccc(F)cc1", "note": "(configuration not stated)", "values": [{"measurement": "cell number change", "value": 14.9, "unit": "%"}, {"measurement": "AC50", "setting": "[2]", "value": "29.1 µM [rising, single point]"}]}, {"smiles": "Cc1ccc(S(=O)(=O)N(C)C)cc1NC(=O)CCc1ccccc1", "values": [{"measurement": "cell number change", "value": 17.4, "unit": "%"}, {"measurement": "AC50", "setting": "[1]", "value": "0.0184 µM [rising, full curve, poor fit]"}, {"measurement": "AC50", "setting": "[2]", "value": "0.0517 µM [rising, full curve, poor fit]"}]}, {"smiles": "COc1ccc([N+](=O)[O-])cc1NS(=O)(=O)c1ccc(C(=O)N2CCCC2)cc1", "values": [{"measurement": "cell number change", "value": 3.52, "unit": "%"}, {"measurement": "AC50", "setting": "[2]", "value": "6.51 µM [falling, single point]"}]}, {"smiles": "COc1ccc(CCNC(=O)c2cc(C)oc2C)cc1", "values": [{"measurement": "cell number change", "value": 11.4, "unit": "%"}, {"measurement": "AC50", "setting": "[1]", "value": "1.16 µM [rising, partial curve]"}]}, {"smiles": "COc1ccc(OC)c(N(C)S(=O)(=O)c2cc3c(cc2C)NC(=O)CO3)c1", "values": [{"measurement": "cell number change", "value": -2.59, "unit": "%"}]}, {"smiles": "CCOC(=O)N1CCN(C(=O)CS(=O)(=O)c2cn(Cc3ccc(Cl)cc3)c3ccccc23)CC1", "values": [{"measurement": "AC50", "setting": "[2]", "value": "6.51 µM [rising, single point]"}]}, {"smiles": "O=C(NC1CCCCC1)C(c1ccccc1)N(Cc1cccnc1)C(=O)c1csnn1", "note": "(configuration not stated)", "values": [{"measurement": "cell number change", "value": -7.94, "unit": "%"}, {"measurement": "AC50", "setting": "[2]", "value": "29.1 µM [rising, single point]"}]}, {"smiles": "CCN(CC)c1ccc(/C=N/NC(=S)NCc2ccccc2)cc1", "values": [{"measurement": "cell number change", "value": 22.1, "unit": "%"}, {"measurement": "AC50", "setting": "[2]", "value": "29.1 µM [rising, single point]"}]}, {"smiles": "CCC(=O)C(C#N)(c1ccc(OC)c(OC)c1)C(C)C", "note": "(configuration not stated)", "values": [{"measurement": "cell number change", "value": -20.5, "unit": "%"}, {"measurement": "AC50", "setting": "[2]", "value": "1.16 µM [rising, single point]"}]}, {"smiles": "Nc1ccccc1C(=O)NCc1ccco1", "values": [{"measurement": "cell number change", "value": 16.7, "unit": "%"}, {"measurement": "AC50", "setting": "[2]", "value": "6.51 µM [falling, single point]"}]}, {"smiles": "COc1cc(C2C(C(=O)c3ccco3)=C(O)C(=O)N2c2cc(C)on2)ccc1OCc1ccccc1", "note": "(configuration not stated)", "values": [{"measurement": "cell number change", "value": -8.26, "unit": "%"}, {"measurement": "AC50", "setting": "[2]", "value": "0.461 µM [falling, single point]"}]}, {"smiles": "NC(=O)c1nsc(C(=O)N(CC(=O)NC2CCCCC2)c2cccc(F)c2)c1N", "values": [{"measurement": "cell number change", "value": 11.1, "unit": "%"}]}, {"smiles": "CCCOc1c(Br)cc(C(=O)OCC(=O)NC(=O)c2cccn2C)cc1OC", "values": [{"measurement": "cell number change", "value": -50.4, "unit": "%"}, {"measurement": "AC50", "setting": "[1]", "value": "11.6 µM [falling, partial curve, poor fit]"}, {"measurement": "AC50", "setting": "[2]", "value": "0.082 µM [falling, partial curve, poor fit]"}]}, {"smiles": "CCCCCn1c(SCc2cccc(C)c2)nc2c1c(=O)[nH]c(=O)n2C", "values": [{"measurement": "cell number change", "value": -34.5, "unit": "%"}, {"measurement": "AC50", "setting": "[1]", "value": "29.1 µM [falling, single point]"}, {"measurement": "AC50", "setting": "[2]", "value": "11.6 µM [falling, partial curve, poor fit]"}]}, {"smiles": "CCOCCOC(=O)c1[nH]c2c(c1C)C(=O)CC(c1cc(OC)c(OC)c(OC)c1)C2", "note": "(configuration not stated)", "values": [{"measurement": "cell number change", "value": -39.5, "unit": "%"}, {"measurement": "AC50", "setting": "[1]", "value": "29.1 µM [falling, single point]"}, {"measurement": "AC50", "setting": "[2]", "value": "29.1 µM [falling, single point]"}]}]}
